Measured values as given in PMC5099880.
These are yes or no findings as the source states them, for the method shown. Binding seen in cells or lysates may run through a third protein. Some entries that bind do so weakly or less than the wild type. Tags and fused reporters may be left off the sequences shown.

By UniProt entry, the sequences of proteins in these tests, tags left out.
UniProt Q9JMH9: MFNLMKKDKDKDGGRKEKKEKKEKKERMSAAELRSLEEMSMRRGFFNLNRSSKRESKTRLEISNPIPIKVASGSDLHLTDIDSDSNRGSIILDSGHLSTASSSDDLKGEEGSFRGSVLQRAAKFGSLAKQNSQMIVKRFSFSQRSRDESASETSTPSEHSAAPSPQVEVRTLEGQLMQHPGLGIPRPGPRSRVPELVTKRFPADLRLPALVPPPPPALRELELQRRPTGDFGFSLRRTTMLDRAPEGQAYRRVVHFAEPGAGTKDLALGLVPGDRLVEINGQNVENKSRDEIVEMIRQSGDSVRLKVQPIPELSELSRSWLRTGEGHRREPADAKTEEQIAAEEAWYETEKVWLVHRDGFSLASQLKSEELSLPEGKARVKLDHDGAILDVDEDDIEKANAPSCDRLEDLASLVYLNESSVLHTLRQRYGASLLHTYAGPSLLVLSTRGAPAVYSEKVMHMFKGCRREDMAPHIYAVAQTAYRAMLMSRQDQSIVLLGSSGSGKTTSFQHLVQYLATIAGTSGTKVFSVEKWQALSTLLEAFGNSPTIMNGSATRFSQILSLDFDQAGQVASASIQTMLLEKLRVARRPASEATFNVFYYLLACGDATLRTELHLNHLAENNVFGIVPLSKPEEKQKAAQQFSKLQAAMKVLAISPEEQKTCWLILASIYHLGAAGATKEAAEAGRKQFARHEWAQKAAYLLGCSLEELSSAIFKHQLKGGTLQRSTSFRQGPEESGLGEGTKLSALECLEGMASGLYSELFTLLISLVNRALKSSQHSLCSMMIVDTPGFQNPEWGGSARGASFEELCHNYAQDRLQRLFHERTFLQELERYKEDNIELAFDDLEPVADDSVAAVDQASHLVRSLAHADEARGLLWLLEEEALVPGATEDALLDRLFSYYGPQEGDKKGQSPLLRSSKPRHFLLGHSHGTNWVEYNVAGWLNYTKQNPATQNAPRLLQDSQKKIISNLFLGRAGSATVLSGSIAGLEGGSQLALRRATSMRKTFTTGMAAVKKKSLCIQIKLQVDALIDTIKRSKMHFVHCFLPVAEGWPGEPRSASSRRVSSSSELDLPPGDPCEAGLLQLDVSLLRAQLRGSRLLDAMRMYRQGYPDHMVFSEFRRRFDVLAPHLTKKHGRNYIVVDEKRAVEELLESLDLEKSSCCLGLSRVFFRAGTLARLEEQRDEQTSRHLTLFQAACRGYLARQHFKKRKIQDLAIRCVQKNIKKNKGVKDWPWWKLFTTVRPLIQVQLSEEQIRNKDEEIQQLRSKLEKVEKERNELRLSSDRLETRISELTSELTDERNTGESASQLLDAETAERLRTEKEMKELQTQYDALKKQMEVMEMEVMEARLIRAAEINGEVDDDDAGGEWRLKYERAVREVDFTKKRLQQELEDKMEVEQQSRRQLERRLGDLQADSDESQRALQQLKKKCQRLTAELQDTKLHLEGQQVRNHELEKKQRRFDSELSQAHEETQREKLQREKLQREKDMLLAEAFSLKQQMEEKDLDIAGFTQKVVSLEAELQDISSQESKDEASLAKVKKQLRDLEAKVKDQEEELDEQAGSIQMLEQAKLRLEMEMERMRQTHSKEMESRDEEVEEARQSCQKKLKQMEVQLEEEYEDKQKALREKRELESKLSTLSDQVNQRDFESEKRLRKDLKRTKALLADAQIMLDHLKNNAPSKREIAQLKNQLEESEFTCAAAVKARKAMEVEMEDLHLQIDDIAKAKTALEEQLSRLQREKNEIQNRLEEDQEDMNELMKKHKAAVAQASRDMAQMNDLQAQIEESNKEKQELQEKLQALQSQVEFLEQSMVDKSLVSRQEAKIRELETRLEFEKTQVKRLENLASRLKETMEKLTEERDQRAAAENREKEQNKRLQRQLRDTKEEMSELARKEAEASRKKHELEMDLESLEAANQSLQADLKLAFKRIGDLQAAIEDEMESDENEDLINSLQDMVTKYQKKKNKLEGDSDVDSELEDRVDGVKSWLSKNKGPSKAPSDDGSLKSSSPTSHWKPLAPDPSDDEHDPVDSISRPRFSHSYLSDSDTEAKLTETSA

Target: N-terminal myc-tagged full-length mouse MYO18A (mouse) (UniProt Q9JMH9)
Assay: co-IP; HEK293T cells co-transfected, lysed in 150 mM NaCl, 50 mM Tris-HCl pH 7.5, 1% Triton X-100; anti-myc antibody agarose beads, 2 hours at 4 °C, five washes with 500 mM NaCl lysis buffer; blots with anti-GFP and anti-myc

B1: EGFP-tagged mouse Golgin45 (protein, UniProt Q8R2X8 1-403)
chain: MEKMTTLKSSENKGILTSTPIRGAGDGMETEEPPKSVEVTHGVQPINQHVLPSPRKKVSSDSPGVLQLGKILNERTVEVEAVRIFVPKAAITHDIPTKNTKVKSLGHHREELHNQAEVVTDPRKELSEVKKVLEKLKNSERRLLQDKEGLSNQLRVQTEINRELKKLLVASVGDDPQYHFERLAREKNQLILENEALGRNTAQLSEQLERMSIQCDVWRSKFLASRVMADELTNFRVVLQRQNRDAQSAIQDLLSEREQFRQEMTSTQKFLEELLVSLQWGREQTYSPNTQPHSTADLALTNHGLAQAIHAHLLGNVGISHQKKIPTTVEFCSTPAEKMAEKVLRILDPVACTESSPDNQFAESSPTTLLTTKKNIGRFHPYTRYENITFNCCNHCQGELIAL
Q: B1 was tested. Which binding did it give?
A: The binding was “binds”.
